Results reported in patent publication US4148996A, “3,7-Disubstituted cephalosporins” (Societa Farmaceutici Italia S.p.A., priority 1976, dated 1979).
For at least one compound, name, drawing or mass did not settle the structure. Some entries repeat one wording, which the source may state once for all of them.

Assays:
[1] = test system: S.aureus; assay: in vitro MIC by serial dilution, S.aureus; assay type: cell-based, Staphylococcus aureus; settings: in words, compared with cephazolin and cephalothin
Method: A series of comparative tests was carried out in vitro with the method of serial dilutions in Penassay Seed Broth Difco inoculated with 10^4 bacteria/ml (overnight cultures).
Table 1 below reports the results of the above assays as MIC (minimal inhibitory concentration, mcg/ml).

[2] = test system: Salmonella abortivoequina; assay: in vivo therapeutic activity on mice experimentally infected with Salmonella abortivoequina; set-up: species or system male Swiss Cobs albino mice; settings: in words, compared with cephalothin / cephazolin
Method: In vivo tests for therapeutic activity were carried out on mice experimentally infected with Staphylococcus aureus and Salmonella abortivoequina (Infective dose: 2 LD50 /mouse i.p.); groups of 6 male Swiss Cobs albino mice were used. The infected animals were treated by the subcutaneous route 4 h after infection. The mortality rate was recorded every day for 7 days. The activity was assessed as ED50 (Dose effective in curing 50% of the infected mice as mg/Kg--see Reed and Muench, Am. J. Hyg. 27, 493, 1938.)

For `O=C(Cc1cccs1)NC1C(=O)N2C(C(=O)O)=C(CSc3cnccn3)CSC12` (stereo not shown) [Compound 314, 7-(2-thienyl)-acetamido-3-pyrazinylthiomethyl-3-cephem-4-carboxylic acid], the antistaphylococcal activity [1] was “excellent antistaphylococcal activity, clearly superior to that of known cephalosporins”.
For `COc1cncc(SCC2=C(C(=O)O)N3C(=O)C(NC(=O)Cc4cccs4)C3SC2)n1` (stereo not shown) [Compound 321, 7-(2-Thienyl)-acetamido-3-(6-methoxypyrazin-2-ylthiomethyl)-3-cephem-4-carboxylic acid], the “therapeutic activity on Salmonella abortivo equina experimental infections” value [2] was “equal to or slightly lower than that of cephalothin and cephazolin respectively” and the antistaphylococcal activity [1] was “excellent antistaphylococcal activity, clearly superior to that of known cephalosporins”.
In the case of `COc1nccnc1SCC1=C(C(=O)O)N2C(=O)C(NC(=O)Cc3cccs3)C2SC1` (stereo not shown) [Compound 317, 7-(2-thienyl)-acetamido-3-(3-methoxy-pyrazin-2-ylthiomethyl)-3-cephem-4-carboxylic acid], the antistaphylococcal activity [1] was “excellent antistaphylococcal activity, clearly superior to that of known cephalosporins”.
